These are yes or no findings as the source states them, for the method shown. In cells and extracts the contact can be indirect. Some results given as binding are weak or reduced against the parent protein; the word gives no strength.
Molecular target: HERC2 (ubiquitin E3 ligase), endogenous (human (endogenous in U2OS, HEK293T, A549, H1299)) (UniProt O95714)
Assay: co-IP; endogenous HERC2 precipitated with bvg3 antibody from U2OS cells transfected with Flag-MDM2 and p53-CFP for 24 h; untreated or bleomycin for the last 3 h; pre-immune serum as negative control; endogenous p53 also present

Protein sequences, listed by entry. Tags and fused reporters are not part of them.
UniProt O95714: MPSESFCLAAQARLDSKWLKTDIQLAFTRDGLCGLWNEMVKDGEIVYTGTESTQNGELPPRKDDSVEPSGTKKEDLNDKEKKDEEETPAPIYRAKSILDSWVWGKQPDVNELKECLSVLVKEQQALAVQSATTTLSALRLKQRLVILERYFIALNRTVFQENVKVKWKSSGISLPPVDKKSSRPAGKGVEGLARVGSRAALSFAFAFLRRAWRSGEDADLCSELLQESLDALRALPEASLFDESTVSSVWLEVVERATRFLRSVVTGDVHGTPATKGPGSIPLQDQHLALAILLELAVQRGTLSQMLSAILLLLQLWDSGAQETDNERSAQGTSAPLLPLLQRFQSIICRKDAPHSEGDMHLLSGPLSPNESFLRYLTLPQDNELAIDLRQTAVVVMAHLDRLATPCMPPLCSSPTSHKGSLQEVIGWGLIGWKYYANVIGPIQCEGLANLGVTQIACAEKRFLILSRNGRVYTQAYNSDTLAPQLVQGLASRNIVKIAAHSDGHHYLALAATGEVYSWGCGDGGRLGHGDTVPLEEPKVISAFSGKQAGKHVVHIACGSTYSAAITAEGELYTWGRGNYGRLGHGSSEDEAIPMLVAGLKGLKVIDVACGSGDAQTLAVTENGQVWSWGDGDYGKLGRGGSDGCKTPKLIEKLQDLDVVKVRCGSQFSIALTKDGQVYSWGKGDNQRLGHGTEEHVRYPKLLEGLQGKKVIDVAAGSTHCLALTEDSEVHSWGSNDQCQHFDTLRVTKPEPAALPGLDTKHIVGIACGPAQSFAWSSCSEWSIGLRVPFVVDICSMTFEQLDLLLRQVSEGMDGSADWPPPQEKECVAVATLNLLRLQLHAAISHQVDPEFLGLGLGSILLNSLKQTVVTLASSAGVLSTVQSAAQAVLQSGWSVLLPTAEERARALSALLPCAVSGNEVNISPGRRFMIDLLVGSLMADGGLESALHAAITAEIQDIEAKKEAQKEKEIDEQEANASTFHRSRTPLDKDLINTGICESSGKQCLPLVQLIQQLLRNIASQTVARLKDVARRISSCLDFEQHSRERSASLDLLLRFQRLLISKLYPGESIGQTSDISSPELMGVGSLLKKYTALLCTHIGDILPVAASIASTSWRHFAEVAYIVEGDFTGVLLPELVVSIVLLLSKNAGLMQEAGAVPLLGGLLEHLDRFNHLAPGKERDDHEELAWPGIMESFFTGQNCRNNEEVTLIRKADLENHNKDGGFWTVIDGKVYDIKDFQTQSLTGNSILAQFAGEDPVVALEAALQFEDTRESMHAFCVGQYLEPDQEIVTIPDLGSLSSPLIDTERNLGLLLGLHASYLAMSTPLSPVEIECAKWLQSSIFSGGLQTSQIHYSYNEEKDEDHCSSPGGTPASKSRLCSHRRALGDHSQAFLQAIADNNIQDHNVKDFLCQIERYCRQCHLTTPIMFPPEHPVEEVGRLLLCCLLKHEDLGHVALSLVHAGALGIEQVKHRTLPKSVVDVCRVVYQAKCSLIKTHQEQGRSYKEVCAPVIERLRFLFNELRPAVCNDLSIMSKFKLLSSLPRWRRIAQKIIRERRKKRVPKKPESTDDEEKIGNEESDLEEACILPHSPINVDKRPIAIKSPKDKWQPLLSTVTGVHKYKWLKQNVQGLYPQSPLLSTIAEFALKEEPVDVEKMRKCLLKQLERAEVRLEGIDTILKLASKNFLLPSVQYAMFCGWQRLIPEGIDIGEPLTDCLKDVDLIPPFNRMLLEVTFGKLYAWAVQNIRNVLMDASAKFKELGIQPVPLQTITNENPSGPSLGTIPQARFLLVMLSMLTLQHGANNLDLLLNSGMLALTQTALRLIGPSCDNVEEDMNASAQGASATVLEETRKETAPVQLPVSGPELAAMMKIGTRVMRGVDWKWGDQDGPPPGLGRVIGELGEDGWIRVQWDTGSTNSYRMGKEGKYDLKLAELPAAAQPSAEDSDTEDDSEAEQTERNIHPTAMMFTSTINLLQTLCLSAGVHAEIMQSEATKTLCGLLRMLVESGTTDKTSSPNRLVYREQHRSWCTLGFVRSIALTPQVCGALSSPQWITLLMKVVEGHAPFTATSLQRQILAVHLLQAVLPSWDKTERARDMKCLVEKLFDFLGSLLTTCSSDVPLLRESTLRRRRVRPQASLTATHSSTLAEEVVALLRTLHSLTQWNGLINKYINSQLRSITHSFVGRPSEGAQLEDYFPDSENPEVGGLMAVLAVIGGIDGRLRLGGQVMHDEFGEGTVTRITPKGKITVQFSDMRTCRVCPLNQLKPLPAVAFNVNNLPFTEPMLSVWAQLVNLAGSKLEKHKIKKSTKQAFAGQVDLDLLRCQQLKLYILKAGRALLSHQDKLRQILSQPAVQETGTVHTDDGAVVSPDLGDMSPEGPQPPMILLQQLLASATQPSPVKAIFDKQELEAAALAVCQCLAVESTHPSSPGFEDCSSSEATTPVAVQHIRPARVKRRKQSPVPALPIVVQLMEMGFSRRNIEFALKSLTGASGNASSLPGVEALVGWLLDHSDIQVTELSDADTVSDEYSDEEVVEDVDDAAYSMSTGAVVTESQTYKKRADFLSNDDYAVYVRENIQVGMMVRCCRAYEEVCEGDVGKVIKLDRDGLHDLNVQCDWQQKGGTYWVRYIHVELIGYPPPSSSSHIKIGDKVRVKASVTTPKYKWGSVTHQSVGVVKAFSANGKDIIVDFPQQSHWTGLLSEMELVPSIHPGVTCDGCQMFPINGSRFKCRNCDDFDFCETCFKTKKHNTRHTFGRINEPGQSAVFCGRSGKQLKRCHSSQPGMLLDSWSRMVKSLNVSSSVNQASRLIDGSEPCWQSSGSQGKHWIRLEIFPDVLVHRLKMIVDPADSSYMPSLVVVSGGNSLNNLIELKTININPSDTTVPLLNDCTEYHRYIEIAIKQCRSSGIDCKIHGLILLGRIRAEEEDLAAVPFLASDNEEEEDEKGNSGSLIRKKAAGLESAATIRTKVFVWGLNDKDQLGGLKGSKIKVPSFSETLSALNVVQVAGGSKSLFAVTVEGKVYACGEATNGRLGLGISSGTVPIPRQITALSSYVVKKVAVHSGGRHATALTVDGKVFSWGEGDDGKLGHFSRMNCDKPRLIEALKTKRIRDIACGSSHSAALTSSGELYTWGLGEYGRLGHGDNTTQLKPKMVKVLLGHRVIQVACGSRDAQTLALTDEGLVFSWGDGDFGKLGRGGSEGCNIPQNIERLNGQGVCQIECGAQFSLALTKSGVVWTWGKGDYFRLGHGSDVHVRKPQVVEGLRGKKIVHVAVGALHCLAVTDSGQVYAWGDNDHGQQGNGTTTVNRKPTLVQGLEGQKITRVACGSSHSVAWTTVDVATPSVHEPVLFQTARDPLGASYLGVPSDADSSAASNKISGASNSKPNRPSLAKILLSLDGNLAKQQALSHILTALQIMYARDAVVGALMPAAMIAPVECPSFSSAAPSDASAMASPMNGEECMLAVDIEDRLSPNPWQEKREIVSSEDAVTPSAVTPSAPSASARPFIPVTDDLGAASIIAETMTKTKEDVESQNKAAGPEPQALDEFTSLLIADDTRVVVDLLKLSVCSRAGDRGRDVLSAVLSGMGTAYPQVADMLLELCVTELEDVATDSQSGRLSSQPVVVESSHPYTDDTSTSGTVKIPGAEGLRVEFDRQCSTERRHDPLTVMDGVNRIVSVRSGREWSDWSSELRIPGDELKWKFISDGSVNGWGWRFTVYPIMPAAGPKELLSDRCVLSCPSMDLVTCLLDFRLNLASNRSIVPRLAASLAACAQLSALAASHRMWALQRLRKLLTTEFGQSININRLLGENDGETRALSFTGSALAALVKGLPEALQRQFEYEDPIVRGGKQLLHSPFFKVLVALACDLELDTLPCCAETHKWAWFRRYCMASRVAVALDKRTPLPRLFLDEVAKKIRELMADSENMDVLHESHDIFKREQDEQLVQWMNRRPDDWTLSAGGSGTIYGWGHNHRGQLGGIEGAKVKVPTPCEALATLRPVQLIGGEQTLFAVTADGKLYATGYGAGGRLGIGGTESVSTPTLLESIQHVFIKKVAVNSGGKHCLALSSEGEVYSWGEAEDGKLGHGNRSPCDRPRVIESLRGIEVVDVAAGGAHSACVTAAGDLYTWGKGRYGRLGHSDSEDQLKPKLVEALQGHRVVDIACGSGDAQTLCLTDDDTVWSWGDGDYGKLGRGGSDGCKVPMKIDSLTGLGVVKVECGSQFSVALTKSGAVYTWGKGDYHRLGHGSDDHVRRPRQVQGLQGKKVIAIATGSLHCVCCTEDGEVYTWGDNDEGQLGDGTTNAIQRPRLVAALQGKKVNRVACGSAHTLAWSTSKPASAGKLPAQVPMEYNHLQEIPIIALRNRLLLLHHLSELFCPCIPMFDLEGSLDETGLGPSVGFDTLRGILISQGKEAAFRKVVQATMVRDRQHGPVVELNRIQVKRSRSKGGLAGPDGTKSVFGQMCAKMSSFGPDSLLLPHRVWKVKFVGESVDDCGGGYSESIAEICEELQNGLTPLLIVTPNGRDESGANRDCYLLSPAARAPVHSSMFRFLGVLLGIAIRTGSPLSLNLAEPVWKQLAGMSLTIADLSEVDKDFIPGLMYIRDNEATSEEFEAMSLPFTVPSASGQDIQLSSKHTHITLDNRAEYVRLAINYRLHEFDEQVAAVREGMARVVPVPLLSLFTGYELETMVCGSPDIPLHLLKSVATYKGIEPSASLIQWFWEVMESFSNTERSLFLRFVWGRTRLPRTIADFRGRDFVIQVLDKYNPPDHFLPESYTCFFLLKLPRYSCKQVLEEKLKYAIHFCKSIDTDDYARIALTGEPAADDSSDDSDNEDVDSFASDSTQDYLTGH
UniProt Q96JN8: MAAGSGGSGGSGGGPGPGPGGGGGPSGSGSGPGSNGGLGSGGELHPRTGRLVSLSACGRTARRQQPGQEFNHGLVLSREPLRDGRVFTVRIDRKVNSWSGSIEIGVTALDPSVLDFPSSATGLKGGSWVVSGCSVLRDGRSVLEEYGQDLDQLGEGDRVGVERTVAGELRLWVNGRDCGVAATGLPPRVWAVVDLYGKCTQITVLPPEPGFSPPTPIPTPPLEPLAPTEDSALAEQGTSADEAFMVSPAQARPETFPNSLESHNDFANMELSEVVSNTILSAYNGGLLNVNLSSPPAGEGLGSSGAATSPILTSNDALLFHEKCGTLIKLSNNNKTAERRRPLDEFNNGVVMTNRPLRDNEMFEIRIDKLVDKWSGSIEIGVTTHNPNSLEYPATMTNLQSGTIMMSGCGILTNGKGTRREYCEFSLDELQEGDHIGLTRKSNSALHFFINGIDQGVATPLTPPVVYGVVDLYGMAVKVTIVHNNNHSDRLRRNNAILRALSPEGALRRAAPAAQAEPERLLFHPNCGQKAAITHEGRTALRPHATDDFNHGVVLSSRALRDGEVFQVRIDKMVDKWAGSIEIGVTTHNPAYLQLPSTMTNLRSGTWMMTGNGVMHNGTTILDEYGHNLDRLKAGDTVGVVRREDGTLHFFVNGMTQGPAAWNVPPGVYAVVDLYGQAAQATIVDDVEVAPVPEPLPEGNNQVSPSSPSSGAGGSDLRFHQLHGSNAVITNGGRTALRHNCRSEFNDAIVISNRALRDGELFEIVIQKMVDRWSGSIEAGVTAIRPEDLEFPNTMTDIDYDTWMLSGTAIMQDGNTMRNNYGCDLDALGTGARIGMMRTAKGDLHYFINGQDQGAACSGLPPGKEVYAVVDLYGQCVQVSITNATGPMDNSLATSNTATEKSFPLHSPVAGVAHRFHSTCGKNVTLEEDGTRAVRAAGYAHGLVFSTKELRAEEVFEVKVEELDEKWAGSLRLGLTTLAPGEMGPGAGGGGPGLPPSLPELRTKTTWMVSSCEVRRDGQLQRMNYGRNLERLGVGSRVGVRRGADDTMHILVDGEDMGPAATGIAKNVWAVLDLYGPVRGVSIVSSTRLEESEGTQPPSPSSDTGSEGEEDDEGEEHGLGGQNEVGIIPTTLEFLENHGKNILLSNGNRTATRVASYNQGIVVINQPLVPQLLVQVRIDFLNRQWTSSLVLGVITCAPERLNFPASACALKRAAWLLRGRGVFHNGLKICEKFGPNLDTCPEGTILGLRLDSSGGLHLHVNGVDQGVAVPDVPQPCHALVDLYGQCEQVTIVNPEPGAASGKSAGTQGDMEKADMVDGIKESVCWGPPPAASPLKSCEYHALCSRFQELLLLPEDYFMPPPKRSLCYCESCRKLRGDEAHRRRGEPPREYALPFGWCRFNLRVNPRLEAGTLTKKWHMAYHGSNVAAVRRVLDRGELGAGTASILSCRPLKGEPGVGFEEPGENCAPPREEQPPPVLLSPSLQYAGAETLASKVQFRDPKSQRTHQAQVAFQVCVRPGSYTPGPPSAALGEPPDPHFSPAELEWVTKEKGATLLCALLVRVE

“NEURL4 (neuralized E3 ubiquitin protein ligase 4), endogenous (from UniProt Q96JN8 1-1562)” was tested, and the binding was “binds”.
